# Not every detail of the peptide structures is certain; ends, links or a residue may be inferred.
# By UniProt entry, the sequences of proteins in these tests, tags left out. Residues count along the entry.
# UniProt P06213, 28-758 limits assumed: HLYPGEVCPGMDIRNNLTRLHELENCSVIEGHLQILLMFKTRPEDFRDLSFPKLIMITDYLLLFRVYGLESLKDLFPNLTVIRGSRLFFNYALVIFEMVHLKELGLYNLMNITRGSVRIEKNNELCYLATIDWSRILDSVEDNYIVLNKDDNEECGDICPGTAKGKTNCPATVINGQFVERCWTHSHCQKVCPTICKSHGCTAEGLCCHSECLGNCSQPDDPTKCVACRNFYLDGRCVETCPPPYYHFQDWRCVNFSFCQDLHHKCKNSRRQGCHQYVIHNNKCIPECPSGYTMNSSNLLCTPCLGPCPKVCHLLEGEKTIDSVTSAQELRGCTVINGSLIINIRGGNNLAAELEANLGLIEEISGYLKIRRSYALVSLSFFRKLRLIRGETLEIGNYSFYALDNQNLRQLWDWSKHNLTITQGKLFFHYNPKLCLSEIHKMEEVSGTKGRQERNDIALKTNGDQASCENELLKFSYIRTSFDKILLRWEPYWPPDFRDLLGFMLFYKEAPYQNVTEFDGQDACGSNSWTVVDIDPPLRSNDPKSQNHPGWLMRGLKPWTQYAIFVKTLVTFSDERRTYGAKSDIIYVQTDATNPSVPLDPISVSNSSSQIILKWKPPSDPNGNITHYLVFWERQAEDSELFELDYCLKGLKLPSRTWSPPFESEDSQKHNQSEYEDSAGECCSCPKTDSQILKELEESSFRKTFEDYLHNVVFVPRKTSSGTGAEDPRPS
# UniProt P06213, 763-1382 partner limits assumed: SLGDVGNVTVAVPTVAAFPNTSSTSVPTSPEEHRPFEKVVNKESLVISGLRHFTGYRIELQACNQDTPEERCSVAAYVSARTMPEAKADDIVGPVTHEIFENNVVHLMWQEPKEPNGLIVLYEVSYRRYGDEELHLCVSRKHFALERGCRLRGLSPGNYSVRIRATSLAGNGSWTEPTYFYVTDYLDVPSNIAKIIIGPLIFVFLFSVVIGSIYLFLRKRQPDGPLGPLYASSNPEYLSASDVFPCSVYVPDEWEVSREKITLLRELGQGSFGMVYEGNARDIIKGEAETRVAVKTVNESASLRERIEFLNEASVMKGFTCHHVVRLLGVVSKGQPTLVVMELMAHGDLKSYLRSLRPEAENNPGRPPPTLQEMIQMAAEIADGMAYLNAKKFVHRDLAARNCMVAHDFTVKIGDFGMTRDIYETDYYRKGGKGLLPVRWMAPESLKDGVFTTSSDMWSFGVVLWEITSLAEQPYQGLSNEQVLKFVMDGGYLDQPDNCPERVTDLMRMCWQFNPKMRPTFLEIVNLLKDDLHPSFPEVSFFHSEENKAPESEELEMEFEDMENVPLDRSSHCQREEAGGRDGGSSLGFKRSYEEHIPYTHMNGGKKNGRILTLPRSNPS
# Biological target: T1, human insulin receptor (Homo sapiens, UniProt P06213)
# T1 construct: expressed in transfected cells; plasma membrane fragments
# Assay: Insulin receptor binding assay (competition, scintillation proximity)
# Conditions: Table 4, relative to Insulin Standard
structure (smiles),measurement,value
CC[C@H](C)[C@H](NC(=O)CN)C(=O)N[C@H](C(=O)N[C@@H](CC(=O)O)C(=O)N[C@@H](CCC(=O)O)C(=O)N[C@H]1CSSC[C@@H]2NC(=O)[C@H](CO)NC(=O)[C@H](CCCNC(=N)N)NC(=O)[C@H](Cc3ccccc3)NC(=O)[C@H](CSSC[C@H](NC(=O)[C@H](CC(C)C)NC(=O)[C@@H](NC(=O)[C@H](CCC(=O)O)NC(=O)[C@@H]3CCCN3C(=O)CN)[C@@H](C)O)C(=O)NCC(=O)N[C@@H](C)C(=O)N[C@@H](CCC(=O)O)C(=O)N[C@@H](CC(C)C)C(=O)N[C@@H](C(C)C)C(=O)N[C@@H](CC(=O)O)C(=O)N[C@@H](C)C(=O)N[C@@H](CC(C)C)C(=O)N[C@@H](Cc3ccc(O)cc3)C(=O)N[C@@H](CC(C)C)C(=O)N[C@@H](C(C)C)C(=O)N[C@H](C(=O)NCC(=O)N[C@@H](CC(=O)O)C(=O)N[C@@H](CCCNC(=N)N)C(=O)NCC(=O)N[C@@H](Cc3ccccc3)C(=O)N[C@@H](Cc3ccc(O)cc3)C(=O)N[C@@H](Cc3ccccc3)C(=O)N[C@@H](CC(N)=O)C(=O)N[C@@H](CCCCN)C(=O)N3CCC[C@H]3C(=O)N[C@H](C(=O)O)[C@@H](C)O)CSSC[C@@H](C(=O)N[C@@H](C)C(=O)O)NC(=O)[C@H](Cc3ccc(O)cc3)NC(=O)[C@H](CCSC)NC(=O)[C@H](CCC(=O)O)NC(=O)[C@H](CC(C)C)NC(=O)[C@H](CCCNC(=N)N)NC(=O)[C@H](CCCNC(=N)N)NC(=O)[C@H](CC(C)C)NC(=O)[C@H](CC(=O)O)NC2=O)NC1=O)C(C)C [IGF1(Y^B16L^B17)],% of Insulin Activity,262%

# From patent US20170313755A1 (priority 2016, published 2017)
